In PMC7186227 one finds binding data, which are given here for one molecule.

The target of the assay is MITA (mediator of IRF3 activation) (human (endogenous in HT1080)), Q86WV6. Kind of assay: co-IP; HT1080 cells asynchronized or synchronized (mitotic), untreated or treated with cGAMP for 2 h; co-immunoprecipitation and immunoblotting; precipitating antibody not stated. The conditions noted are these: remark: other sources report otherwise. For orientation: A western blot detects proteins with antibodies after separation by electrophoresis.

These are yes or no findings as the source states them, for the method shown. In cells and extracts the contact can be indirect. Some binding calls cover weakened binding; strength is not graded here.

B1: TBK1, Q9UHD2 1-729 (protein)
chain: MQSTSNHLWLLSDILGQGATANVFRGRHKKTGDLFAIKVFNNISFLRPVDVQMREFEVLKKLNHKNIVKLFAIEEETTTRHKVLIMEFCPCGSLYTVLEEPSNAYGLPESEFLIVLRDVVGGMNHLRENGIVHRDIKPGNIMRVIGEDGQSVYKLTDFGAARELEDDEQFVSLYGTEEYLHPDMYERAVLRKDHQKKYGATVDLWSIGVTFYHAATGSLPFRPFEGPRRNKEVMYKIITGKPSGAISGVQKAENGPIDWSGDMPVSCSLSRGLQVLLTPVLANILEADQEKCWGFDQFFAETSDILHRMVIHVFSLQQMTAHKIYIHSYNTATIFHELVYKQTKIISSNQELIYEGRRLVLEPGRLAQHFPKTTEENPIFVVSREPLNTIGLIYEKISLPKVHPRYDLDGDASMAKAITGVVCYACRIASTLLLYQELMRKGIRWLIELIKDDYNETVHKKTEVVITLDFCIRNIEKTVKVYEKLMKINLEAAELGEISDIHTKLLRLSSSQGTIETSLQDIDSRLSPGGSLADAWAHQEGTHPKDRNVEKLQVLLNCMTEIYYQFKKDKAERRLAYNEEQIHKFDKQKLYYHATKAMTHFTDECVKKYEAFLNKSEEWIRKMLHLRKQLLSLTNQCFDIEEEVSKYQEYTNELQETLPQKMFTASSGIKHTMTPIYPSSNTLVEMTLGMKKLKEEMEGVVKELAENNHILERFGSLTMDGGLRNVDCL
Consider B1, for which the binding entry is “binds”.
